# From paper PMC4464074
# Construct, isoform or probe ends are uncertain for at least one entry.
# Legend:
# [1] = target: RecQ523 (Escherichia coli) (UniProt P15043); test: DNA dependence of steady-state ATPase (Pi release, MDCC-PBP stopped-flow), Kd,app; settings: ATP (during ATPase cycling); SF50: 50 mM Tris-HCl pH 7.5, 50 mM NaCl, 1 mM DTT, 5 mM MgCl2, 50 µg/mL BSA, 25 °C; anisotropy with 10 nM forked duplex; recombinant protein; residues 1-523; single-stranded DNA
# [2] = target: RecQWT (Escherichia coli) (UniProt P15043); test: as above; settings: ATP (during ATPase cycling); SF50: 50 mM Tris-HCl pH 7.5, 50 mM NaCl, 1 mM DTT, 5 mM MgCl2, 50 µg/mL BSA, 25 °C; anisotropy with 10 nM forked duplex; recombinant protein; single-stranded DNA
# [3] = target: RecQY555A (Escherichia coli) (UniProt P15043); test: as above; settings: ATP (during ATPase cycling); SF50: 50 mM Tris-HCl pH 7.5, 50 mM NaCl, 1 mM DTT, 5 mM MgCl2, 50 µg/mL BSA, 25 °C; anisotropy with 10 nM forked duplex; recombinant protein; single-stranded DNA
# [4] = target: RecQ523 (Escherichia coli) (UniProt P15043); test: stopped-flow binding kinetics from ATPase lag (koff/kon); settings: ATP (during ATPase cycling); SF50: 50 mM Tris-HCl pH 7.5, 50 mM NaCl, 1 mM DTT, 5 mM MgCl2, 50 µg/mL BSA, 25 °C; anisotropy with 10 nM forked duplex; recombinant protein; residues 1-523; single-stranded DNA
# [5] = target: RecQWT (Escherichia coli) (UniProt P15043); test: as above; settings: ATP (during ATPase cycling); SF50: 50 mM Tris-HCl pH 7.5, 50 mM NaCl, 1 mM DTT, 5 mM MgCl2, 50 µg/mL BSA, 25 °C; anisotropy with 10 nM forked duplex; recombinant protein; single-stranded DNA
# [6] = target: RecQY555A (Escherichia coli) (UniProt P15043); test: as above; settings: ATP (during ATPase cycling); SF50: 50 mM Tris-HCl pH 7.5, 50 mM NaCl, 1 mM DTT, 5 mM MgCl2, 50 µg/mL BSA, 25 °C; anisotropy with 10 nM forked duplex; recombinant protein; single-stranded DNA
sequence,measurement,setting,value
TTTTTTTTTTTTTTTTTTTTTTTTTTTTTTTTTTTTTTTTTTTTTTTTTTTTTT [dT54],half-maximal binding,[1],2.2 µM (nt)
same,half-maximal binding,[2],1.2 µM (nt)
same,half-maximal binding,[3],3.1 µM (nt)
same,Kd,[4],5.4 µM (nt)
same,Kd,[5],4.6 µM (nt)
same,Kd,[6],5.7 µM (nt)
